Reference: US7763234B2 (GE Healthcare AS, priority 2005, dated 2010)

Tests used:
[1] = general procedure: Fmoc solid-phase peptide synthesis; Fmoc-Leu-SASRIN resin; HBTU; conditions: whole synthesis; for crude mass: scale 0.05 mmol
[2] = general procedure: Fmoc solid-phase peptide synthesis; TentaGel Sac Leu-Fmoc resin; HBTU; conditions: whole synthesis, scale 0.05 mmol

Row | Substance | crude mass [1] [mg] | further results
1 | N-cPn216-Gly-Arg-Val-Tyr-Ile-His-Pro-Ile-His-Leu-OH | 70 | –
2 | N-cPn216-Gly-Arg-Val-Tyr-Ile-His-Pro-Bip-His-Leu-OH | 90 | –
3 | cPn216-Gly-Arg-Val-Tyr-Ile-His-Pro-Phe-His-Leu-OH | – | isolated mass ([1]; scale 0.1 mmol): 3 mg
4 | N-cPn216-Gly-Arg-Val-Tyr-Ile-His-Pro-Hph-His-Leu-OH | – | crude mass [2]: 24 mg
